According to PubChem BioAssay AID1508600 (Functional Genomics Laboratory (NCATS/FGL), 2020):
Among all 53,000 sequences or so, about 3,700 (7%) were called active.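 The calls were made as follows: active = gene knockdowns whose robust z-score for IL-1 alpha signal is at least 2 or at most -2, so actives lie on both sides; inactive = the rest.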 This is one part of the list.

Assay: Components of the Cytosolic LPS Sensing Pathway: Gene Identification via Genome-wide siRNA Screen;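 also: robust z of the log signal after scaling to non-targeting control siRNA wells of the plate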
Conditions: RAW264.7 macrophages, IL-1a HTRF, actives lie on both sides, screened at 100 nM (by protocol), cells primed 5 h with Pam3CSK4 first
Outline: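 Three distinct siRNAs per gene were tested singly at 100 nM in RAW264.7 macrophages. Following Pam3CSK4 priming and 24 hour LipidA transfection, IL-1a secretion was read by HTRF.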

| Sequence | z-score |
| --- | --- |
| GGGUCUCAUACCUAAGGACTT against Wnt3a | inactive: -0.228 |
| GGUGGUGACUAAGAAAUUCTT against Prps1 | inactive: 0.353 |
| GGACAUAAUCAAAGACAUCTT against Ddc | inactive: 1.15 |
| GGAAUUCUUUGGACUGAAUTT against Ccr5 | inactive: -0.618 |
| GCAAAUCCCUCACUAAUUUTT against Kctd20 | inactive: -0.655 |
| GGUGUGAUUGAAGAAGCGGTT against Gpr37 | inactive: -0.463 |
| GGGUUUUGUGUAAAAGGUUTT against Olfr584 | inactive: -1.17 |
| GGAGAAUCCCAGCAACUCUTT against Sall2 | inactive: 1.39 |
| CGCUGCAUUAAAGACUAAATT against Kcnj10 | inactive: 0.414 |
| GCAAGCAGAGCUGAUUCUUTT against Slc25a24 | inactive: 0.638 |
| GGUAAAGCAAGAGAGUAUUTT against Hccs | inactive: -0.629 |
| GGACUGCUUCUACAAGGUUTT against Uck1 | inactive: 0.566 |
| GGGCCUCAAAAACCUCAUGTT against Prelp | inactive: -1.84 |
| GGUACUGUUGCGCUUUGCUTT against Ciao3 | inactive: 1.47 |
| GCUGCUUUACUUAAGAGUUTT against Srf | inactive: 0.625 |
| GCGUGGUAGAUGCUAUUAATT against Gfod2 | inactive: -0.479 |
| CCUCUCAGAUGGUAUAUAATT against Olfr520 | active: -2.14 |
| GGAUGCCGUCAACAUUGUATT against Psmd4 | inactive: 0.526 |
| CCUCAAACUAACCACUCACTT against Olfr1045 | inactive: -1.13 |
| GGUCUCUUCGAUGUCCUCATT against Htr6 | inactive: -1.59 |
| CUCCACUCCUUUGGAACUUTT against Gm5128 | inactive: -0.454 |
| GGAGAUCUCACCGACAUUGTT against Cpt1c | inactive: -1.22 |
| GGAAGGAAAUGUGUGAAAUTT against 4930555G01Rik | inactive: -0.194 |
| GGCUCUUCUCUCGUCCUUGTT against Nif3l1 | inactive: 0.213 |
| GGUCUGCACUGAGAAGAUUTT against Hmg20b | inactive: -1.78 |
| CGGAGACAUUUUCCCUAGCTT against Ccng1 | inactive: -0.621 |
| GUGGCGAUAUCCAGAGAUGTT against Vmn1r18 | inactive: 0.261 |
| GGCUUUGGAGAUAAAUUUATT against Nup153 | inactive: -1.88 |
| GGUGUGUUUGGAUAUAGUUTT against Prkdc | inactive: -0.39 |

A section from the list above, as a working copy:

| Sequence | z-score |
| --- | --- |
| GGGUUUUGUGUAAAAGGUUTT against Olfr584 | inactive: -1.17 |
| GGAGAAUCCCAGCAACUCUTT against Sall2 | inactive: 1.39 |
